Test results reported in paper PMC8062009.
No constants are given. Whether binding was seen depends on the method and setting. Binding seen in cells or lysates may run through a third protein. Some results given as binding are weak or reduced against the parent protein; the word gives no strength.

Protein sequences, listed by entry. Tags and fused reporters are not part of them.
UniProt O15218: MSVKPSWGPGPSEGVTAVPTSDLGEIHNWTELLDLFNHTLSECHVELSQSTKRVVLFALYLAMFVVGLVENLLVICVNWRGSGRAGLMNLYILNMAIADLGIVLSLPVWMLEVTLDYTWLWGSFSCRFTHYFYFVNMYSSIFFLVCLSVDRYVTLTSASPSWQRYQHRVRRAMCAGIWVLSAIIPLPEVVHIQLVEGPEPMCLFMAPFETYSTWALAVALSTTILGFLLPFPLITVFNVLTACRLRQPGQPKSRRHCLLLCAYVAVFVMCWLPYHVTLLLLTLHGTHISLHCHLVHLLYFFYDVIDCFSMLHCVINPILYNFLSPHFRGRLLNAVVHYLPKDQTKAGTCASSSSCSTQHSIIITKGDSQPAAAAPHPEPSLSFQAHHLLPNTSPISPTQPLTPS
UniProt P46093: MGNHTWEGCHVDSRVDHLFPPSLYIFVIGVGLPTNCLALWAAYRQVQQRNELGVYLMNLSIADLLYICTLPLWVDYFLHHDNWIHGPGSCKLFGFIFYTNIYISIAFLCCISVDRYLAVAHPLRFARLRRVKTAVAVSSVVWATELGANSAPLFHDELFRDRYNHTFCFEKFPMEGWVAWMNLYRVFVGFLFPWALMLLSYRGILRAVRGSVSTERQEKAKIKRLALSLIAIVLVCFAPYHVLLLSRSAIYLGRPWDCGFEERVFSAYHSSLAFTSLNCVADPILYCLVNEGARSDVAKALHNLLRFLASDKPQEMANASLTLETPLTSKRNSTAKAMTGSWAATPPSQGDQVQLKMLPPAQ
UniProt P49407: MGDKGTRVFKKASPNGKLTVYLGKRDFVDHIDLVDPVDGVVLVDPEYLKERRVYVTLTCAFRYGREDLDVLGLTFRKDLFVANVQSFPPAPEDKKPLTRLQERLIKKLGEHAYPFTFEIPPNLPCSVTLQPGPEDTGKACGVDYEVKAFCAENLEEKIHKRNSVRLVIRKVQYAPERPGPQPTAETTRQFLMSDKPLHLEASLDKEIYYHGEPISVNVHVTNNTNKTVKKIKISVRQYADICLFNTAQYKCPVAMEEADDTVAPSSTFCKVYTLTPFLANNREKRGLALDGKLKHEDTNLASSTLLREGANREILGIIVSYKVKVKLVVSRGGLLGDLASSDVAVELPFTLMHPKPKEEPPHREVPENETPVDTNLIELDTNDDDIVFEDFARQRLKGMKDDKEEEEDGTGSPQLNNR
UniProt P32121: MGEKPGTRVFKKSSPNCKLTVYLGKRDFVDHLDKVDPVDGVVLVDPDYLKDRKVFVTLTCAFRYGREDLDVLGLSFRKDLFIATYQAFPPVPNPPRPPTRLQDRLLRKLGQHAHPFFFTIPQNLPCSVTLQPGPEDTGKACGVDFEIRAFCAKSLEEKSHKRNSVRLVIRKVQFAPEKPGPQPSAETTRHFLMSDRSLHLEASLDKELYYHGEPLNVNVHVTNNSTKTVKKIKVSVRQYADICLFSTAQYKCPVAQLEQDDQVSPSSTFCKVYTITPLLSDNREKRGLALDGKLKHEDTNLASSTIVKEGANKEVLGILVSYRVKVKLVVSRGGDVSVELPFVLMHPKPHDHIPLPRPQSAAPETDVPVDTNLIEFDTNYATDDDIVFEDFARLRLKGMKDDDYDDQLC

Assays:
GPR182-Rluc8 = GPR182-Rluc8 (UniProt O15218); assay: FRET or BRET; basal net BRET between GPCR-Rluc8 and Venus-β-arrestin-1 or -2 in intact HEK 293 cells in DPBS, GRK2 and GRK6 co-transfected; no receptor ligand; interacting pairs detected as outliers (ROUT, FDR 1%)
GPR4-Rluc8 = GPR4-Rluc8 (UniProt P46093); assay: as above

binding (GPR182-Rluc8) | binding (GPR4-Rluc8) | Substance
binds | binds | Venus-β-arrestin-1 (from UniProt P49407 1-418)
– | binds | Venus-β-arrestin-2 (from UniProt P32121 1-409)
